Test results: patent US20190367445A1, “4-AMINO SUBSTITUTED PHENYLAMIDINE DERIVATIVES AND THEIR USE TO PROTECT CROPS BY FIGHTING UNDESIRED PHYTOPATHOGENIC MICOORGANISMS” (PI INDUSTRIES LTD., priority 2016, published 2019)
Some of these results come from one statement about several compounds together. For at least one compound, name, drawing or mass did not settle the structure. Some compounds share one range, which may span the group rather than tell each member.

What was measured:
[1] = system: Alternaria solani (early blight of tomato/potato); assay: In vitro test on Potato Dextrose Agar, radial growth: Alternaria solani; assay type: cell-based; settings: 300 ppm, radial growth after seven days, 25° C., 60% relative humidity
Botrytis cinera = assay: Greenhouse preventive test: Botrytis cinera test in tomato; assay type: in vivo, Botrytis cinera on tomato (bean/chilli plants); settings: 500 ppm; preventive spray, Botrytis cinera inoculated one day after treatment; disease severity rating
Alternaria solani = assay: Greenhouse preventive test: Alternaria solani test in tomato; assay type: in vivo; settings: 500 ppm; preventive spray on tomato, Alternaria solani inoculated one day after treatment; disease severity rating
[2] = system: Rhizoctonia solani (Rice sheath blight/Potato black scurf); assay: In vitro test on Potato Dextrose Agar, radial growth: Rhizoctonia solani; assay type: cell-based; settings: 300 ppm, radial growth after seven days, 25° C., 60% relative humidity
[3] = system: Septoria lycopersici (Leaf spot of tomato); assay: In vitro test on Potato Dextrose Agar, radial growth: Septoria lycopersici; assay type: cell-based; settings: 300 ppm, radial growth after seven days, 25° C., 70% relative humidity
[4] = system: Botrytis cinerea (Gray mold); assay: In vitro test on Potato Dextrose Agar, radial growth: Botrytis cinerea; assay type: cell-based; settings: 300 ppm, radial growth after seven days, 22° C., 90% relative humidity
[5] = system: Colletotrichum capsici (anthracnose); assay: In vitro test on Potato Dextrose Agar, radial growth: Colletotrichum capsici; assay type: cell-based; settings: 300 ppm, radial growth after seven days, 25° C., 60% relative humidity

Compound | control compared to untreated check [1] [%] | Efficacy (% control) compared to untreated (Botrytis cinera) | Efficacy (% control) compared to untreated (Alternaria solani) | control compared to untreated check [2] [%] | control compared to untreated check [3] | control compared to untreated check [4] [%] | control compared to untreated check [5] [%]
CCN(C)C=Nc1cc(C)c(N(c2ccccc2)S(C)(=O)=O)cc1C [Compound 5] | 70 to 100 | 70-100% | 70-100% |  |  |  | 
CCN(C)C=Nc1cc(C)c(N(C)c2ccc(C(F)(C(F)(F)F)C(F)(F)F)cc2C)cc1C [Compound 6] | 70 to 100 | 70-100% | 70-100% | 70 to 100 | 80-100% |  | 
CCN(C)C=Nc1cc(C)c(N(C)c2cccc(Cl)c2)cc1C [Compound 8] | 70 to 100 |  | 70-100% | 70 to 100 | 80-100% | 70 to 100 | 70 to 100
CCN(C)C=Nc1cc(C)c(N(C)c2ccc(Cl)c(Cl)c2)cc1Cl [Compound 12] | 70 to 100 | 70-100% | 70-100% |  |  |  | 
CCN(C)C=Nc1cc(C)c(N(C)c2cc(OC)cc(OC)c2)cc1Cl [Compound 23] |  | 70-100% | 70-100% |  |  |  | 
CCN(C)C=Nc1cc(C)c(N(C)c2cccc(C)c2)cc1C [Compound 24] | 70 to 100 | 70-100% | 70-100% | 70 to 100 | 80-100% |  | 70 to 100
CCN(C)C=Nc1cc(C)c(N(C)c2cccc(OC)c2)cc1C [Compound 25] | 70 to 100 | 70-100% | 70-100% | 70 to 100 | 80-100% |  | 70 to 100
CCN(C)C=Nc1cc(C)c(N(C)c2ccc(C)cc2)cc1C [Compound 26] | 70 to 100 | 70-100% | 70-100% | 70 to 100 | 80-100% |  | 70 to 100
CCN(C)C=Nc1cc(C)c(Nc2cccc(OC)c2)cc1C [Compound 28] | 70 to 100 | 70-100% | 70-100% |  | 80-100% |  | 
CCN(C)C=Nc1cc(C)c(Nc2cccc(C)c2)cc1C [Compound 29] | 70 to 100 | 70-100% | 70-100% | 70 to 100 | 80-100% |  | 70 to 100
CCN(C)C=Nc1cc(C)c(Nc2ccc(C)cc2)cc1C [Compound 30] | 70 to 100 | 70-100% | 70-100% | 70 to 100 | 80-100% |  | 
CCN(C)C=Nc1cc(C)c(N(C)c2ccc(C(C)(C)C)cc2)cc1C [Compound 31] | 70 to 100 | 70-100% | 70-100% | 70 to 100 | 80-100% |  | 70 to 100
CCN(C)C=Nc1cc(C)c(Nc2ccc(C(C)(C)C)cc2)cc1C [Compound 32] | 70 to 100 | 70-100% | 70-100% |  | 80-100% |  | 70 to 100
CCN(C)C=Nc1cc(C)c(N(C)c2ccccc2Cl)cc1C [Compound 33] | 70 to 100 |  | 70-100% | 70 to 100 | 80-100% | 70 to 100 | 70 to 100
CCN(C)C=Nc1cc(C)c(N(C)c2ccccc2F)cc1Cl [Compound 37] | 70 to 100 | 70-100% | 70-100% |  | 80-100% |  | 
CCN(C)C=Nc1cc(C)c(Nc2ccccc2Cl)cc1C [Compound 40] | 70 to 100 |  | 70-100% | 70 to 100 | 80-100% | 70 to 100 | 70 to 100
CCN(C)C=Nc1cc(C)c(Nc2ccc(Cl)cc2)cc1C [Compound 43] | 70 to 100 | 70-100% | 70-100% | 70 to 100 | 80-100% |  | 70 to 100
CCN(C)C=Nc1cc(C)c(Nc2ccc(F)cc2)cc1C [Compound 44] | 70 to 100 | 70-100% | 70-100% |  | 80-100% |  | 70 to 100
CCN(C)C=Nc1cc(C)c(Nc2ccccc2Br)cc1C [Compound 54] | 70 to 100 |  | 70-100% | 70 to 100 | 80-100% | 70 to 100 | 70 to 100
CCN(C)C=Nc1cc(C)c(N(C)c2cccc(SC)c2)cc1C [Compound 66] | 70 to 100 |  | 70-100% | 70 to 100 | 80-100% |  | 70 to 100
CCN(C)C=Nc1cc(C)c(N(C)c2cccc(C(F)(F)F)c2)cc1Cl [Compound 88] | 70 to 100 | 70-100% | 70-100% | 70 to 100 |  | 70 to 100 | 70 to 100
CCN(C)C=Nc1cc(C)c(N(C)c2cccc(C(F)(F)F)c2)cc1C [Compound 89] | 70 to 100 |  | 70-100% | 70 to 100 | 80-100% | 70 to 100 | 70 to 100
CCN(C)C=Nc1cc(C)c(Nc2ccccc2SC(F)(F)F)cc1C [Compound 116] | 70 to 100 |  | 70-100% | 70 to 100 | 80-100% | 70 to 100 | 70 to 100
CCN(C)C=Nc1cc(C)c(Nc2cccc(SC(F)F)c2)cc1C [Compound 118] | 70 to 100 |  | 70-100% | 70 to 100 |  | 70 to 100 | 70 to 100
CCN(C)C=Nc1cc(C)c(Nc2ccc(SC(F)(F)F)cc2)cc1C [Compound 119] | 70 to 100 |  | 70-100% | 70 to 100 | 80-100% | 70 to 100 | 70 to 100
CCN(C)C=Nc1cc(C)c(N(C)c2cccc(SC(F)F)c2)cc1C [Compound 125] | 70 to 100 |  | 70-100% | 70 to 100 | 80-100% | 70 to 100 | 70 to 100
CCN(C)C=Nc1cc(C)c(N(C)c2cc(F)ccc2F)cc1C [Compound 156] | 70 to 100 |  | 70-100% | 70 to 100 |  | 70 to 100 | 70 to 100
CCN(C)C=Nc1cc(C)c(N(C)c2cc(F)ccc2F)cc1Cl [Compound 157] | 70 to 100 |  | 70-100% | 70 to 100 |  | 70 to 100 | 70 to 100
CCN(C)C=Nc1cc(C)c(N(C)c2cc(C)ccc2C(F)(F)F)cc1C [Compound 158] | 70 to 100 |  | 70-100% | 70 to 100 | 80-100% | 70 to 100 | 70 to 100
